# According to patent US8784373B2, “Drug delivery by carbon nanotube arrays” (California Institute of Technology, priority 2010, dated 2014):
# At least one structure is not confirmed: it was looked up by name or label, or the drawing left a doubt.
# Assay: Drugs protection (wash-out) experiment in DI water
# Type: physicochemical
smiles,measurement,setting,value
O=C1OC2(c3ccc(O)cc3Oc3cc(O)ccc32)c2ccccc21 [fluorescein sodium],initial concentration of fluorescein sodium retained,"CNT-fitted latex samples, placed in 2 mL DI water",about 50%
same,time to wash out in DI water vs initial concentration,"CNT-fitted latex samples, various initial concentrations",Lower initial concentration lead to longer time
same,initial concentration of fluorescein sodium lost,"bare latex samples, placed in 2 mL DI water",almost all
same,retention against wash-out by DI water,"bare latex samples, whatever the initial concentration",could not retain
